This data set deals with TRF2ΔB + Rap1. In words: fluorescence anisotropy. Conditions: Rap1 releases more DNA than from full-length TRF2; 3'-C6 aminoalkyl linker on one strand; FA: 50 mM NaCl, 50 mM sodium phosphate pH 7.0, 25 °C, 7.5 nM DNA; recombinant protein; protein details: N-terminal His6; label: Alexa Fluor 488 at 3' end of one strand.

For at least one entry, the source does not settle the construct or the ends of the probe. A weaker result is weaker than the reference pair of the same experiment.

Turning to GTTAGGGTTAGGGTTAG (double strand) [R2], the binding result is “binds more weakly”.
